Assay results as given in publication PMC9712689.

Protein sequences, listed by entry. Tags and fused reporters are not part of them. Residues count along the entry.
UniProt Q9HXN1, residues 33-490: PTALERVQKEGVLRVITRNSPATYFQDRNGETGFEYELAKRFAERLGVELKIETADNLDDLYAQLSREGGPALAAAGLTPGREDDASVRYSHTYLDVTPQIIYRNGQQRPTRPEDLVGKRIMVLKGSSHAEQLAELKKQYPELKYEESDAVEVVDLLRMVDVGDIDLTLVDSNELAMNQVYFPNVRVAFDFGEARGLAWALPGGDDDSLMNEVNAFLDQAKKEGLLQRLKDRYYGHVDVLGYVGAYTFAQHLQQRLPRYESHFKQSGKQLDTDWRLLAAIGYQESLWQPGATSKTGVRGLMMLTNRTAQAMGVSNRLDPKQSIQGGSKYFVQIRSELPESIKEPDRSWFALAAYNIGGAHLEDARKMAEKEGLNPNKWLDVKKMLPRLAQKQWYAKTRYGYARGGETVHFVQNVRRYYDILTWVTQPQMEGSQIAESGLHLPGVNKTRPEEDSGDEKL

Legend:
[1] = biological target: MltF, N-terminal His-tagged construct (P. aeruginosa) (UniProt Q9HXN1); assay: affinity purification with mass spectrometry; only the target purified
[2] = biological target: Slt, N-terminal His-tagged construct (P. aeruginosa) (UniProt Q9HZI6); assay: as above
[3] = biological target: RlpA-Δ32 (rare lipoprotein A), N-terminally His-tagged (P. aeruginosa PAO1) (UniProt Q9X6V6); assay: as above
[4] = biological target: MltG, N-terminal His-tagged construct (P. aeruginosa) (UniProt Q9HZN7); assay: as above
[5] = biological target: MltA, N-terminal His-tagged construct (P. aeruginosa) (UniProt Q9I4B6); assay: affinity purification with mass spectrometry; N-terminally His-tagged LT on Ni-NTA resin incubated with the soluble or the 0.5% NP-40-solubilised membrane proteome of P. aeruginosa PAO1, 4 °C overnight; eluted with 500 mM imidazole; no cross-linker; only the target purified
[6] = biological target: MltB, N-terminal His-tagged construct (P. aeruginosa) (UniProt Q9HVX3); assay: as above
[7] = biological target: MltD, N-terminal His-tagged construct (P. aeruginosa) (UniProt Q9I2T2); assay: as above
[8] = biological target: MltF, N-terminal His-tagged construct (P. aeruginosa) (UniProt Q9HXN1); assay: as above
[9] = biological target: MltF2, N-terminal His-tagged construct (P. aeruginosa) (UniProt Q9HZY1); assay: as above
[10] = biological target: MltG, N-terminal His-tagged construct (P. aeruginosa) (UniProt Q9HZN7); assay: as above
[11] = biological target: RlpA-Δ32 (rare lipoprotein A), N-terminally His-tagged (P. aeruginosa PAO1) (UniProt Q9X6V6); assay: as above
[12] = biological target: Slt, N-terminal His-tagged construct (P. aeruginosa) (UniProt Q9HZI6); assay: as above
[13] = biological target: MltB, N-terminal His-tagged construct (P. aeruginosa) (UniProt Q9HVX3); assay: affinity purification with mass spectrometry; only the target purified
[14] = biological target: MltD, N-terminal His-tagged construct (P. aeruginosa) (UniProt Q9I2T2); assay: as above
[15] = biological target: MltF2, N-terminal His-tagged construct (P. aeruginosa) (UniProt Q9HZY1); assay: as above

Measured: binding

B1: PA5043 (protein, UniProt G3XD30 1-198)
chain: MARINLLPWREELREQRKQQFLVILGGVLVASAALVFLGDQYFTAAIENQNARNDFLRKEIVVLDARIKEISELKSRRQQLLERMKIIQDLQGNRPIIGRVFDQLVRTLPDGVYFTDLKMTGKNIAIAGAAESNNRVSNLMRNMDASEWLTAPTLNEVKAVTQGAVDQANVFQLTVQQTQPGEEDAKAKHGVAQGAKK
binds: [1] | [2]

B2: PilO (protein, UniProt G3XD51 1-207)
chain: MSLASSLESLRKIDINDLDLNNIGSWPAAVKVIVCVLLTAAVLALGYNFHLSDMQAQLEQQAAEEETLKQQFSTKAFQAANLEAYKAQMKEMEESFGALLRQLPSDTEVPGLLEDITRTGLGSGLEFEEIKLLPEVAQQFYIELPIQISVVGGYHDLATFVSGVSSLPRIVTLHDFEIKPVAPGSTSKLRMSILAKTYRYNDKGLKK
binds: [3]

B3: PilA (protein, UniProt P04739 7-149)
chain: FTLIELMIVVAIIGILAAIAIPQYQNYVARSEGASALATINPLKTTVEESLSRGIAGSKIKIGTTASTATETYVGVEPDANKLGVIAVAIEDSGAGDITFTFQTGTSSPKNATKVITLNRTADGVWACKSTQDPMFTPKGCDN
binds: [4] | [3]

B4: PBP7 (protein, UniProt P72161 24-310)
chain: SPPPKAGLPLQQELASGSALVTDQNTGKVLYSRNPDLVVPIASITKLMTAMVVLDSKLPLDEVLPIAISETSEMRGVFSRVRVGSQISRRDMLLLALMSSENRAAASLAQNYPGGKNAFVKAMNAKAHALGMKNTRYVEPTGLSLHNVSTARDLTRLLVASRQYPLLSQWSTTPEKTVAFRHPNYTLGFRNTNHLINNKTWNIQLTKTGFTNEAGHCLVMRTTINRSPVNLVVLDAFGKYTHFADATRLRRWLETGQVTAIPAAAKAYRLQRDRERGLGQPVAQAVR
binds: [5] | [6] | [7] | [8] | [9] | [10] | [11] | [12]

B5: PmrB (protein, UniProt Q9HV31 1-477)
chain: MSRAAVPSVRRRLLVNLLVGFVLCWLSVAALTYHLSLKQVNRLFDDDMVDFGEAALRLLDLATEDQAGEDGSITEIIERSREAIQGLPLLRRESALGYALWRDGQPLLSSLNLPPEITAQGPGFSTVEAQGTHWRVLQLNIDGFQIWISENLIYRQHTMNLLLFYSLFPLLLALPLLGGLVWFGVARGLAPLREVQAEVQQRSARHLQPIAVEAVPLEIRGLIDELNLLLERLRTALEAERRLTSDAAHEIRTPLASLRTHAQVALRSEDPKAHARGLLQVSRSVERISTLMEQILLLARLDGDALLEQFHPVNLATLAEDVLSELARQAIDKDIELSLHQETVYVMGIDLWLKAMVGNLVGNALRYTPAGGQVEIRVENRAQHAVLRVRDNGPGVALEEQQAIFTRFYRSPATSSGEGSGLGLPIVKRIVELHFGSIGLGKGLEGKGLEVQVFLPKTQPDATRPPARGPDSGRSHI
binds: [3]

B6: PA2530 (protein, UniProt Q9I0V3 1-441)
chain: MHQRQHFEALAEDLRRHLAEGEDFTLWYSAEDSEFIRFNRARVRQAGRVRQASALLRLIRDERQASLDLTLSGAPEEDRQRLAEGLRQLRQSLAWIPADPYLLLDTSAWQRENQDLGAAPDSGALLASLERRARDLDLVGIYAAGPLFRGFANSWGAFGWHAGSSFNFDWSLFHGNGQAVKADYAGQRWDDEAFARRFEQAREQLGHLGKPLRQLRPGDYRAYLAPAALEEVMQMLCWGGFSARALATGESPLQRLQNGDALLSPLLNLAERPATSPSPAFSAEGSPRAEVELVGNGRLSGRLVSSRSAREYGLVANGAGANEAPTALDMAGGSLEQARILEALDTGLYIGNLWYLNYSDMPAARLTGMTRFATFWVENGQIRAPVSTMRFDDSLYSFLGAHLEDLSHERELRLSSNTYGERQTDSMHLPGALTGRFTLTL
binds: [13] | [14] | [15]

B7: RlpA (rare lipoprotein A) (protein, UniProt Q9X6V6 27-342)
chain: CSSKAPQQPARQAGISGPGDYSRPHRDGAPWWDVDVSRIPDAVPMPHNGSVKANPYTVLGKTYYPMNDARAYRMVGTASWYGTKFHGQATANGETYDLYGMTAAHKTLPLPSYVRVTNLDNGKSVIVRVNDRGPFYSDRVIDLSFAAAKKLGYAETGTARVKVEGIDPVQWWAQRGRPAPMVLAQPKQAVAQAAPAAAQTQAVAMAQPIETYTPPPAQHAAAVLPVQIDSKKNASLPADGLYLQVGAFANPDAAELLKAKLSGVTAAPVFISSVVRNQQILHRVRLGPIGSADEVSRTQDSIRVANLGQPTLVRPD
binds: [5] | [6] | [7] | [8] | [9] | [10] | [12]

B8: PA0788 (protein, UniProt Q9I5F0 1-1041)
chain: MNCAATGGASMGASERSTNDPSELQPCSLPASASPRKSRLRQRLMLIGFALPILAAVGIVVLHEAHTSRLQARELARYAATLDYEVRQGPSEAILFPADGPFDRRLGYQLLPSFMQRLYDRDYAITRQAHFSPALMRYAEHRLFPPYAEKAQAGLDIADCRGVPIYDFRYPQRRYANFASLPPLVVQSLLFIENRDLLDHERPYLNPAVDWGRFTQAALSQVGKMLGFSAHSSGGSTLATQIEKYRHSAEGRTGSIGDKLRQMLSASVRSYREGPANFAARQDIVLTYLNSVPLSAAPGYGEVTGLADGLWVWYGADYRQVGEALDGKAGLAAQGLALRQVLALMIAHRRPSFYLAPRGRDELDRMTDSHLRVLTQAGVIEAPLRDAALAQKLAFRDPRSQPTVQPLPTNKGVTLARTRLAGMLGVPLYDLDRLDLRANTTLQHELQESVTAYLQKLADPDYAAQLGLIGERLLTPTSTRSVRYSFTLFERTPSGNQVRVQTDNTDQPFDINEGSKLELGSTAKLRVLASYLETVAQIHRDYGGMSVAELRKVEVEPLDFILRWGIDYLVASRDRDLSAMLQAAMERRYSASPYESFFTGGGLHTFNNFRKEDNGRRPMLLEALRESINLPFVRLLRDLIRHDIYQNAGSKVQLLADDKDPRRADYLDRFVDKESQVYLRRFWVKYRDKDANQRLETFLDGLRPWPVRLAAIHRYLQPQADLASFSAFLRERLPRGSLTDKRAAELYERYGPGKFNLNDQGYVARVHPLELWLLGYLQKQPQATFGEAVAASGAERKEVYGWLFKSRHKNARDKRIRILLEVEAFLDLHQQWKKLGYPFDHLVPSYATALGSSGDRPAALAELMGIIVNDGVRMPTLRLEHLDFALGTPYETRFAPEATLGQRVMTSEVATTLRNALSQVVDAGTARRLQGTFSRPDGAPLVMGGKTGTGDNRLQTFSAGGHVRSSKALNRTATFVFYIGPRHFGTLTAYVDGSESSQFKFTSALPVQVLKGMAPLLRDYLDPRTATRCQVPLSPQQIGRL
binds: [3]

No constants are given. Whether binding was seen depends on the method and setting. In cells and extracts the contact can be indirect. These calls come from enrichment with a bait or labelling near it, and not all partners need be listed.
